Values of other authors, collected in patent US20110008461A1 (priority 2008, published 2011).
A number of entries come with more than one value. This list holds those alone. An entry can have further records. The records of an entry do not match, cause unknown; some may be repeats, others may stem from another dose, organism or construct than stated.

Chains of the proteins cited; added tags and fusions are not shown. Residues count along the entry.
UniProt P21642, 34-641 limits assumed: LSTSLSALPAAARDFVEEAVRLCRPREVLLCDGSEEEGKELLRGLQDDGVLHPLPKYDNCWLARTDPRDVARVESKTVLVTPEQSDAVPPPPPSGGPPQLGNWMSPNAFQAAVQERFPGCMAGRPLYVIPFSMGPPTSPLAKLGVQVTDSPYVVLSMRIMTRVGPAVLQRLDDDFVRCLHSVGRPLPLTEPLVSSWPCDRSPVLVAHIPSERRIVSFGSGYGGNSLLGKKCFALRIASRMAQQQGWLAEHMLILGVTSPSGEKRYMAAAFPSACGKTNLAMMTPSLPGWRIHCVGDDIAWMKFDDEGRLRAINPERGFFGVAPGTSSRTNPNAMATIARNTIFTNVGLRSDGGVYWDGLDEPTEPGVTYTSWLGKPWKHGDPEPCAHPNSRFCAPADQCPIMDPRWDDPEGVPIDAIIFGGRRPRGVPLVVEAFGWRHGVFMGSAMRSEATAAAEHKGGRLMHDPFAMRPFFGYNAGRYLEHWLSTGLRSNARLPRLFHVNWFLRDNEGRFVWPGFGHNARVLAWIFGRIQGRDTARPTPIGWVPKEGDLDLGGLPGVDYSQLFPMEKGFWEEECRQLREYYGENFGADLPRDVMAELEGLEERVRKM

Target: avian liver mPEPCK (Gallus gallus, UniProt P21642)
Conditions: previously reported; cited from earlier work

Compound: O=C(O)C(=O)CS(=O)(=O)O [β-sulfopyruvate]
- Ki: 19 µM to 138 µM and 7 µM
